The source of these data is paper PMC8973626.

The assay concerns the target T1, receptor interacting protein 140 (RIP140) (human (endogenous in HPMECs)) (UniProt P48552).
T1 sequence: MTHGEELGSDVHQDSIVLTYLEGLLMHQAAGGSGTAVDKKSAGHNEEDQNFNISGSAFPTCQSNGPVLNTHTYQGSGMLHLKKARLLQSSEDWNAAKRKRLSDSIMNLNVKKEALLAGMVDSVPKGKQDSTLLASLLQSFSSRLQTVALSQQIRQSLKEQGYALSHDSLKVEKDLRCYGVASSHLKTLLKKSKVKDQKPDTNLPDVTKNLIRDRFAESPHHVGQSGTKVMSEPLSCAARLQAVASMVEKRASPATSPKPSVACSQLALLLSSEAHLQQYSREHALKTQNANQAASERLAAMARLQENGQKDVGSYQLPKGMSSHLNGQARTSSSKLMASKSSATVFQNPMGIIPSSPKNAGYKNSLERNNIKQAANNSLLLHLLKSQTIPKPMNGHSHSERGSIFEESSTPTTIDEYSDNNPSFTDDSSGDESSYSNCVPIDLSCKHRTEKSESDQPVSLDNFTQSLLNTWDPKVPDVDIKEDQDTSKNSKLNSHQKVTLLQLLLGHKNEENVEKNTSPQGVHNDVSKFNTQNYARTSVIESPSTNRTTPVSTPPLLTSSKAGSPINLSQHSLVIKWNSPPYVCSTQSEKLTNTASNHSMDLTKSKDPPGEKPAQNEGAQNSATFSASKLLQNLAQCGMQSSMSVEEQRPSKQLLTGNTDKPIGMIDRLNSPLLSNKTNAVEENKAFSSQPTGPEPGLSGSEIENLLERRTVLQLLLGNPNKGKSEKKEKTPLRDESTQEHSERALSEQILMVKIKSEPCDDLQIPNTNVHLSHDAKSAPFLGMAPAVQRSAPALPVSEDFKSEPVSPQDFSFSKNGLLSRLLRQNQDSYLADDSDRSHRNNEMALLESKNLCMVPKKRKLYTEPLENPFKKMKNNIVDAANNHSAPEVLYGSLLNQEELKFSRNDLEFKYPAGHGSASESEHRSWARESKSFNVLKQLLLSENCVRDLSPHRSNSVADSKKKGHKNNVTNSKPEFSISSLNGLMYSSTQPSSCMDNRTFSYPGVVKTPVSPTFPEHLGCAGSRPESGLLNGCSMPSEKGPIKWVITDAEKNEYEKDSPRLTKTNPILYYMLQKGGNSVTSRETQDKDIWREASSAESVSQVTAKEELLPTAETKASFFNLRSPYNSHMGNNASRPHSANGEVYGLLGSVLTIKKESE
The experiment in a line: co-IP; lysate of treated HPMECs; 1 ug of corresponding antibody and protein A/G-beads, 4°C overnight; eluted proteins analysed by Western blotting. (In general: Immunoblotting shows a protein as a band on a membrane.)

No constants are given. Whether binding was seen depends on the method and setting. Binding seen in cells or lysates may run through a third protein. Some results given as binding are weak or reduced against the parent protein; the word gives no strength.

For “C-terminal binding protein 2 (CTBP2) (from UniProt P56545 1-445)”, the binding result is recorded as “binds”.
